Some entries share one result that the patent states for a list of compounds.
Key:
Assay in all cases: Pre-emergence herbicidal action
Type in all cases: in vivo
Settings in all cases: 320 g/ha, visual assessment after 3 weeks
Amaranthus retroflexus = test system: Amaranthus retroflexus
Description: (§1) Seeds of monocotyledonous and dicotyledonous weed plants and crop plants are placed in wood-fiber pots in sandy loam and covered with soil. The inventive compounds formulated in the form of wettable powders (WP) or as emulsion concentrates (EC) are then applied to the surface of the covering soil as an aqueous suspension or emulsion at a water application rate of 600 to 800 l/ha (converted) with addition of 0.2% wetting agent. After the treatment, the pots are placed in a greenhouse and kept under good growth conditions for the test plants. The damage to the test plants is assessed visually after a test period of 3 weeks by comparison with untreated controls (herbicidal activity in percent (%): 100% action=the plants have died, 0% action=like control plants). For example, compounds No. 6-102, 6-014 and 6-058 at an application rate of 320 g/ha each show at least 80% efficacy against Abutilon theophrasti, Amaranthus retroflexus and Matricaria inodora.
(§2) In accordance with the conditions specified for pre-emergence testing of herbicidal efficacy against harmful plants, comparative tests were conducted between inventive compounds and compounds known from WO 2011035874 A1.

Matricaria inodora = test system: Matricaria inodora
Description: as §1, §2

Abutilon theophrasti = test system: Abutilon theophrasti
Description: as §1, §2

Cc1nonc1NC(=O)c1ccc(Cl)c(N=S2(=O)CCOCC2)c1Cl [6-102, 2,4-dichloro-3-[(4-oxido-1,4-λ4-oxathian-4-ylidene)amino]-N-(4-methyl-1,2,5-oxadiazol-3-yl)benzamide]
at least 80%: efficacy against Amaranthus retroflexus (Amaranthus retroflexus) | efficacy against Matricaria inodora (Matricaria inodora) | efficacy against Abutilon theophrasti (Abutilon theophrasti)

Source: patent US9198425B2, “Herbicidally-effective sulfinyl aminobenzamides” (BAYER INTELLECTUAL PROPERTY GMBH, priority 2012, dated 2015)
